These are yes or no findings as the source states them, for the method shown. In cells and extracts the contact can be indirect. A yes stands for co-enrichment or nearness to the bait. Other partners may have been found. Tags and fused reporters may be left off the sequences shown.
T1: GFP-tagged LNX1p80 (Ligand of Numb protein X1, p80 isoform) (mouse) (UniProt O70263)
T1 sequence: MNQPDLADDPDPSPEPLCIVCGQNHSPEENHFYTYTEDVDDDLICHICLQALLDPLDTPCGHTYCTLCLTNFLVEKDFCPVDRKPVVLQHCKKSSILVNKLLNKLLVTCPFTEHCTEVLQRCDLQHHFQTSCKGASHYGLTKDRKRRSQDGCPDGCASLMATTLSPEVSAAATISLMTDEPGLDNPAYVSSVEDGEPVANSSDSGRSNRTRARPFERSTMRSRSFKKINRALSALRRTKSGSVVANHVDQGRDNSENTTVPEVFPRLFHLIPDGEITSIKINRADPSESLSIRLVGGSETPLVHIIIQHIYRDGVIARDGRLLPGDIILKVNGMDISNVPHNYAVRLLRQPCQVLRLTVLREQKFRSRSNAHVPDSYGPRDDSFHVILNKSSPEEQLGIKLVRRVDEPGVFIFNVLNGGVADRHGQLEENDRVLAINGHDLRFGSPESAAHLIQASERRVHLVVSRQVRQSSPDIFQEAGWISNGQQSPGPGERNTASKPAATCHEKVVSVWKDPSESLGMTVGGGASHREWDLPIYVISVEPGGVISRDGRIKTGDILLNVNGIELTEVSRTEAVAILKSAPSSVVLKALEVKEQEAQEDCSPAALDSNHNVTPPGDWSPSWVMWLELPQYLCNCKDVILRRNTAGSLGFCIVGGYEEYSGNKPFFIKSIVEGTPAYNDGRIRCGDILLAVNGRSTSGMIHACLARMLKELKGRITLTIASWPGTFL

The chains behind the UniProt entries cited, without tags or fusion partners. Where a name states a change or a piece, a line headed by the entry shows the natural chain unless it says otherwise. A line that says so, or that is headed by a name, gives the form on record, which may keep a tag or linker. Residues count along the entry.
UniProt Q8TBF4: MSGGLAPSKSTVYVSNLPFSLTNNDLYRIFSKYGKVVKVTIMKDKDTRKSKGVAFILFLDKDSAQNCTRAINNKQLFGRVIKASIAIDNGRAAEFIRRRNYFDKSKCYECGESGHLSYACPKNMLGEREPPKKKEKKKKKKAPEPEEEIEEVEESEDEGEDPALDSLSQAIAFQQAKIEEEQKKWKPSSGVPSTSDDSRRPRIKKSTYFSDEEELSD
UniProt Q13136: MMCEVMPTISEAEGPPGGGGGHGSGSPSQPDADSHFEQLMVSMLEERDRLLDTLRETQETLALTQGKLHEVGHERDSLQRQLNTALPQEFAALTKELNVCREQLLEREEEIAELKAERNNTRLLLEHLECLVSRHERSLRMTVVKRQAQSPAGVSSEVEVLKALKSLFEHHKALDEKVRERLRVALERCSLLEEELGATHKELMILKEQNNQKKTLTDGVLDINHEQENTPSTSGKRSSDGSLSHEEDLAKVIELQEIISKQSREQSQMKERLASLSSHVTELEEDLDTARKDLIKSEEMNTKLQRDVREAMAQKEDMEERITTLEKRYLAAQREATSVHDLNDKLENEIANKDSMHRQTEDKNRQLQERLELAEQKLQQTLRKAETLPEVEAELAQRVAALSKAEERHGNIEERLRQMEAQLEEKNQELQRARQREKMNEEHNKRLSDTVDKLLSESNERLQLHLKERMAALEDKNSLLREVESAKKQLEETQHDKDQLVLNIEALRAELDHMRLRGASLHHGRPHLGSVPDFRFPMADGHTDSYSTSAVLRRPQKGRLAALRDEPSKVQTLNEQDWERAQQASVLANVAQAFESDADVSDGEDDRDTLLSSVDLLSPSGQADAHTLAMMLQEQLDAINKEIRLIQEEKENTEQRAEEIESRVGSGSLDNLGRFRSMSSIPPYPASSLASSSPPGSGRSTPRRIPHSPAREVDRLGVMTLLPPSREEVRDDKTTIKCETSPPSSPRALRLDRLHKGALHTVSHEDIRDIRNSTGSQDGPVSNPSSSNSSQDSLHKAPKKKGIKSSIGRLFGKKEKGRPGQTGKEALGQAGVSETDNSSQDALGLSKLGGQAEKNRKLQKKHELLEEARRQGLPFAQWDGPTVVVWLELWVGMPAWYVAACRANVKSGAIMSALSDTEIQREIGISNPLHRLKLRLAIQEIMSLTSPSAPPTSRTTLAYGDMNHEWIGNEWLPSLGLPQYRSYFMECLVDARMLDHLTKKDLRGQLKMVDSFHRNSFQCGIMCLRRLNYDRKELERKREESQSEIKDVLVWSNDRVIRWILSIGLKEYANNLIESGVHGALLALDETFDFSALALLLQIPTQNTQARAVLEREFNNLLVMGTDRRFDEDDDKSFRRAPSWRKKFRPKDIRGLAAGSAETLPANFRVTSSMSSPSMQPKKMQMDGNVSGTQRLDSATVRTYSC
UniProt P17028: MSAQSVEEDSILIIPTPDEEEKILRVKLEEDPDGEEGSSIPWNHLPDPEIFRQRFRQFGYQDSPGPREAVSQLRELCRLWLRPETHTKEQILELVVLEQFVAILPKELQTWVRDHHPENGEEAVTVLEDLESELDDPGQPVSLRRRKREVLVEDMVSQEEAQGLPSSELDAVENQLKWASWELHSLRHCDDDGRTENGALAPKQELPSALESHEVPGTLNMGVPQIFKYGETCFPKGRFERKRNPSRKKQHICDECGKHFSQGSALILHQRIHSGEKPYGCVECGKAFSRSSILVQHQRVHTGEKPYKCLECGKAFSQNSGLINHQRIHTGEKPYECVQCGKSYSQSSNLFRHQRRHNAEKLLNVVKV
UniProt Q9P2J5: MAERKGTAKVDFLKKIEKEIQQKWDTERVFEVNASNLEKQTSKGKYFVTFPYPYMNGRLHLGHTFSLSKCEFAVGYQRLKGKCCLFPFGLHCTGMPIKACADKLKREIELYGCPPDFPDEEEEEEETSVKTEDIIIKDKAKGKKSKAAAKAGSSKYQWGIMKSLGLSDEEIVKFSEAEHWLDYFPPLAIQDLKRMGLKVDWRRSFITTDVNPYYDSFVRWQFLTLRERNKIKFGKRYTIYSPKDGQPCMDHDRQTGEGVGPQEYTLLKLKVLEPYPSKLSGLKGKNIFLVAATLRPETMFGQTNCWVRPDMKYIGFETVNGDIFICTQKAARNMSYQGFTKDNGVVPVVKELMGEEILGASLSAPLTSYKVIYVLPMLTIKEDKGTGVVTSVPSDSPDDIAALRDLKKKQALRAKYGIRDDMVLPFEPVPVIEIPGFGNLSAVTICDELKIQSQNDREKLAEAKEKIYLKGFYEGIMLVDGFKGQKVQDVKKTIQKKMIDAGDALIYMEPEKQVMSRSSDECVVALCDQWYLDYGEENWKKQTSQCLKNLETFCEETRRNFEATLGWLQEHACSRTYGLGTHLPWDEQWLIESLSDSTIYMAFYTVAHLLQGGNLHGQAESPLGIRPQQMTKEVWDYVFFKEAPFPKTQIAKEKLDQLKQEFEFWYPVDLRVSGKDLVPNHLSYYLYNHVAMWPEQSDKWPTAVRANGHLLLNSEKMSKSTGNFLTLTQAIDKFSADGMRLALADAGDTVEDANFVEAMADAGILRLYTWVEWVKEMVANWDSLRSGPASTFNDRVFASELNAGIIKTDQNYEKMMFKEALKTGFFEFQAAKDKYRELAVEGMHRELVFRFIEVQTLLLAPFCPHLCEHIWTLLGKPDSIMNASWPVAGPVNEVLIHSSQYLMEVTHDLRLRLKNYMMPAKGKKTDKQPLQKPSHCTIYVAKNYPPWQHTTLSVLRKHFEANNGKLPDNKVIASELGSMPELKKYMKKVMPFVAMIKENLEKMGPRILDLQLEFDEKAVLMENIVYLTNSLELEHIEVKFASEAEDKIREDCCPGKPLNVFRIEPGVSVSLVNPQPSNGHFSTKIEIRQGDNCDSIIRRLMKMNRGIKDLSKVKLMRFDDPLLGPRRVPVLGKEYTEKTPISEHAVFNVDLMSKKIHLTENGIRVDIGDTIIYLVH
AP-2 complex subunit alpha-1, endogenous (O95782-2, form named): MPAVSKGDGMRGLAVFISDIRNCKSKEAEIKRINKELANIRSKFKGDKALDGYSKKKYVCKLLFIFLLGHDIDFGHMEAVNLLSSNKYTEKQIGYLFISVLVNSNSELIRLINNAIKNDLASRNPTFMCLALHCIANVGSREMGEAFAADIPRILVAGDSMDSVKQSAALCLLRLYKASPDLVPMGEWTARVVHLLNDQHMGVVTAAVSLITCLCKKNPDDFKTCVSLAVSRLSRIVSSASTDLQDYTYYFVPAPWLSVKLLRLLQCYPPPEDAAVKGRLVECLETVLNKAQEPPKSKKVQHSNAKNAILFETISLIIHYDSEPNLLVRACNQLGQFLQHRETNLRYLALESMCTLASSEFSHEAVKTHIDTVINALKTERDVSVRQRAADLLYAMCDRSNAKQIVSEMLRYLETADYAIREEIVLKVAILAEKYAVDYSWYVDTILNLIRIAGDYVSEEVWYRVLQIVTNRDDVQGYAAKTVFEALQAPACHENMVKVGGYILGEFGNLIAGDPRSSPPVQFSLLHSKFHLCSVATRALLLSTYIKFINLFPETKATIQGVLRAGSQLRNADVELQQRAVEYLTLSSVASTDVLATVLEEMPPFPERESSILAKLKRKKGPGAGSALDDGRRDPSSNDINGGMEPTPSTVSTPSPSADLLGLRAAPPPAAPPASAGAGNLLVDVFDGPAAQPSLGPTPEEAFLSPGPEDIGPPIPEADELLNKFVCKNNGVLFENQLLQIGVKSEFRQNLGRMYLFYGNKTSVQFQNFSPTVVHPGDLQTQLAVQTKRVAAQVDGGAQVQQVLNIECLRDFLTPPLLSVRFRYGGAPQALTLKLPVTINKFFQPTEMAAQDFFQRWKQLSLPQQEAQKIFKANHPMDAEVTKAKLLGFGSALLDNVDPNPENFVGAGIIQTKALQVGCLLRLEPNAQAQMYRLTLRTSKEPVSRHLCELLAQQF
UniProt Q15363, residues 21-201: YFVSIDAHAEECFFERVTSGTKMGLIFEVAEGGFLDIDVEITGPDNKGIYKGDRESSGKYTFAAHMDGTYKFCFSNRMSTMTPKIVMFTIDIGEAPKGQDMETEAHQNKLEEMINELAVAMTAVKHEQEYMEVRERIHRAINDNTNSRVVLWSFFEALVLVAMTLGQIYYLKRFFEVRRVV
UniProt Q8IUD2: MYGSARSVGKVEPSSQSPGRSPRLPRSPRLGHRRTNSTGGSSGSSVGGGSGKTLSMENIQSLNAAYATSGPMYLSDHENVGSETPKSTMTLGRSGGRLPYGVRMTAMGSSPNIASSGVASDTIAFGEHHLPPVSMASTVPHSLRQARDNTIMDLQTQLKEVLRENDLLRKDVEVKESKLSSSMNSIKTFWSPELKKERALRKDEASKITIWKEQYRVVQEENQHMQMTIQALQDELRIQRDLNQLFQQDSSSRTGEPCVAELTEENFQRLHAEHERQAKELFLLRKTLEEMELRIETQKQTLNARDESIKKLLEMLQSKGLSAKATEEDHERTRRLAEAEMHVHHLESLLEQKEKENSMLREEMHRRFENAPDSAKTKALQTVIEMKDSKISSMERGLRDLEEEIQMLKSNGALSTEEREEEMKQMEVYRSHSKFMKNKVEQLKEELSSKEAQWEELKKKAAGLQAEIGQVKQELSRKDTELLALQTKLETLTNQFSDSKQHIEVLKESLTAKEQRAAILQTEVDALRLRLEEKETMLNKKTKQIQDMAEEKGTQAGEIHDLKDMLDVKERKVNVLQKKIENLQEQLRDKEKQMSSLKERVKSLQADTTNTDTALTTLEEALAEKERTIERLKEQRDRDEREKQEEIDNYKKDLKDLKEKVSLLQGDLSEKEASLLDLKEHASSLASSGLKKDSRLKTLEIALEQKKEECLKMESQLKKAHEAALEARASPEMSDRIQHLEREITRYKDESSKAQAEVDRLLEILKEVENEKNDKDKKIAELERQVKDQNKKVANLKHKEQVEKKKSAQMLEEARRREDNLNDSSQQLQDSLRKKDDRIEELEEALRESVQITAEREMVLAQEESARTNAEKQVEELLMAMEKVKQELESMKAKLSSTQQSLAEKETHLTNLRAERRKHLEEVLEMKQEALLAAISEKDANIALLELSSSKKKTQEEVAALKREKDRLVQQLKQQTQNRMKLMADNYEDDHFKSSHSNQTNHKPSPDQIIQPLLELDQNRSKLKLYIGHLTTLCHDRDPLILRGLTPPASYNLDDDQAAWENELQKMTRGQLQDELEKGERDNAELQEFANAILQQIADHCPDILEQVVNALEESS
UniProt O75145: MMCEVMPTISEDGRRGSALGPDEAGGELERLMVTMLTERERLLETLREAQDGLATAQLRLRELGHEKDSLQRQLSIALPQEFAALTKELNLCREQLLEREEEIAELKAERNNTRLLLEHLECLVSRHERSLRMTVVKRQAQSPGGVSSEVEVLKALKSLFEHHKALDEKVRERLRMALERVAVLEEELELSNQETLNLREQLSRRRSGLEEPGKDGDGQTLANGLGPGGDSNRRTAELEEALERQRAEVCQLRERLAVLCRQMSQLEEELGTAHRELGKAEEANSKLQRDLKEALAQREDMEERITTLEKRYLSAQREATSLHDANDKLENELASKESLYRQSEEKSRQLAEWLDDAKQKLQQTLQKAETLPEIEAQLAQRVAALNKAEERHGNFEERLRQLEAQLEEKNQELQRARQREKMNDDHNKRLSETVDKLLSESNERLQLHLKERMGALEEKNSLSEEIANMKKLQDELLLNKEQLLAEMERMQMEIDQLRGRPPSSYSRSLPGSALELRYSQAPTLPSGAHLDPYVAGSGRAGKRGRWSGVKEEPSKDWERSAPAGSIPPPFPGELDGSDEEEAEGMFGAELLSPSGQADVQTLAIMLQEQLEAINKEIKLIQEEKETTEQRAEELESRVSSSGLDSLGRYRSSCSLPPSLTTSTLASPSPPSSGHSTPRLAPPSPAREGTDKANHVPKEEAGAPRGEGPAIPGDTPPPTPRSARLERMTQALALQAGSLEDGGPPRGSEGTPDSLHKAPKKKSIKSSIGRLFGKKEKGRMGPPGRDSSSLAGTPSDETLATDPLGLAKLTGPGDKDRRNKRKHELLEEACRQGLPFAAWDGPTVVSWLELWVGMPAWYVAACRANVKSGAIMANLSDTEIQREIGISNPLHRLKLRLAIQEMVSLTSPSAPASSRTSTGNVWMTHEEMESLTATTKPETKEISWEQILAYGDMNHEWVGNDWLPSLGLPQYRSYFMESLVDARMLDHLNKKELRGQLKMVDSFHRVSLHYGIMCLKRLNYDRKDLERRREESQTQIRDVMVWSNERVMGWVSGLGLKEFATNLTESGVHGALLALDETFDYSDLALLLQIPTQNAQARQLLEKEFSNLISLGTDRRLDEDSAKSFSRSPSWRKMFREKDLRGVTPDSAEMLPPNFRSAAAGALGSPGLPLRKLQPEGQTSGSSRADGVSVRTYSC

B1: Peroxisome biogenesis factor 1, endogenous (protein, UniProt O43933 1-1283)
chain: MWGSDRLAGAGGGGAAVTVAFTNARDCFLHLPRRLVAQLHLLQNQAIEVVWSHQPAFLSWVEGRHFSDQGENVAEINRQVGQKLGLSNGGQVFLKPCSHVVSCQQVEVEPLSADDWEILELHAVSLEQHLLDQIRIVFPKAIFPVWVDQQTYIFIQIVALIPAASYGRLETDTKLLIQPKTRRAKENTFSKADAEYKKLHSYGRDQKGMMKELQTKQLQSNTVGITESNENESEIPVDSSSVASLWTMIGSIFSFQSEKKQETSWGLTEINAFKNMQSKVVPLDNIFRVCKSQPPSIYNASATSVFHKHCAIHVFPWDQEYFDVEPSFTVTYGKLVKLLSPKQQQSKTKQNVLSPEKEKQMSEPLDQKKIRSDHNEEDEKACVLQVVWNGLEELNNAIKYTKNVEVLHLGKVWIPDDLRKRLNIEMHAVVRITPVEVTPKIPRSLKLQPRENLPKDISEEDIKTVFYSWLQQSTTTMLPLVISEEEFIKLETKDGLKEFSLSIVHSWEKEKDKNIFLLSPNLLQKTTIQVLLDPMVKEENSEEIDFILPFLKLSSLGGVNSLGVSSLEHITHSLLGRPLSRQLMSLVAGLRNGALLLTGGKGSGKSTLAKAICKEAFDKLDAHVERVDCKALRGKRLENIQKTLEVAFSEAVWMQPSVVLLDDLDLIAGLPAVPEHEHSPDAVQSQRLAHALNDMIKEFISMGSLVALIATSQSQQSLHPLLVSAQGVHIFQCVQHIQPPNQEQRCEILCNVIKNKLDCDINKFTDLDLQHVAKETGGFVARDFTVLVDRAIHSRLSRQSISTREKLVLTTLDFQKALRGFLPASLRSVNLHKPRDLGWDKIGGLHEVRQILMDTIQLPAKYPELFANLPIRQRTGILLYGPPGTGKTLLAGVIARESRMNFISVKGPELLSKYIGASEQAVRDIFIRAQAAKPCILFFDEFESIAPRRGHDNTGVTDRVVNQLLTQLDGVEGLQGVYVLAATSRPDLIDPALLRPGRLDKCVYCPPPDQVSRLEILNVLSDSLPLADDVDLQHVASVTDSFTGADLKALLYNAQLEALHGMLLSSGLQDGSSSSDSDLSLSSMVFLNHSSGSDDSAGDGECGLDQSLVSLEMSEILPDESKFNMYRLYFGSSYESELGNGTSSDLSSQCLSAPSSMTQDLPGVPGKDQLFSQPPVLRTASQEGCQELTQEQRDQLRADISIIKGRYRSQSGEDESMNQPGPIKTRLAISQSHLMTALGHTRPSISEDDWKNFAELYESFQNPKRRKNQSGTMFRPGQKVTLA
B2: Protein numb homolog, endogenous (protein, UniProt P49757 1-651)
chain: MNKLRQSFRRKKDVYVPEASRPHQWQTDEEGVRTGKCSFPVKYLGHVEVDESRGMHICEDAVKRLKAERKFFKGFFGKTGKKAVKAVLWVSADGLRVVDEKTKDLIVDQTIEKVSFCAPDRNFDRAFSYICRDGTTRRWICHCFMAVKDTGERLSHAVGCAFAACLERKQKREKECGVTATFDASRTTFTREGSFRVTTATEQAEREEIMKQMQDAKKAETDKIVVGSSVAPGNTAPSPSSPTSPTSDATTSLEMNNPHAIPRRHAPIEQLARQGSFRGFPALSQKMSPFKRQLSLRINELPSTMQRKTDFPIKNAVPEVEGEAESISSLCSQITNAFSTPEDPFSSAPMTKPVTVVAPQSPTFQANGTDSAFHVLAKPAHTALAPVAMPVRETNPWAHAPDAANKEIAATCSGTEWGQSSGAASPGLFQAGHRRTPSEADRWLEEVSKSVRAQQPQASAAPLQPVLQPPPPTAISQPASPFQGNAFLTSQPVPVGVVPALQPAFVPAQSYPVANGMPYPAPNVPVVGITPSQMVANVFGTAGHPQAAHPHQSPSLVRQQTFPHYEASSATTSPFFKPPAQHLNGSAAFNGVDDGRLASADRHTEVPTGTCPVDPFEAQWAALENKSKQRTNPSPTNPFSSDLQKTFEIEL
B3: Numb-like protein, endogenous (protein, UniProt Q9Y6R0 1-609)
chain: MSRSAAASGGPRRPERHLPPAPCGAPGPPETCRTEPDGAGTMNKLRQSLRRRKPAYVPEASRPHQWQADEDAVRKGTCSFPVRYLGHVEVEESRGMHVCEDAVKKLKAMGRKSVKSVLWVSADGLRVVDDKTKDLLVDQTIEKVSFCAPDRNLDKAFSYICRDGTTRRWICHCFLALKDSGERLSHAVGCAFAACLERKQRREKECGVTAAFDASRTSFAREGSFRLSGGGRPAEREAPDKKKAEAAAAPTVAPGPAQPGHVSPTPATTSPGEKGEAGTPVAAGTTAAAIPRRHAPLEQLVRQGSFRGFPALSQKNSPFKRQLSLRLNELPSTLQRRTDFQVKGTVPEMEPPGAGDSDSINALCTQISSSFASAGAPAPGPPPATTGTSAWGEPSVPPAAAFQPGHKRTPSEAERWLEEVSQVAKAQQQQQQQQQQQQQQQQQQQQAASVAPVPTMPPALQPFPAPVGPFDAAPAQVAVFLPPPHMQPPFVPAYPGLGYPPMPRVPVVGITPSQMVANAFCSAAQLQPQPATLLGKAGAFPPPAIPSAPGSQARPRPNGAPWPPEPAPAPAPELDPFEAQWAALEGKATVEKPSNPFSGDLQKTFEIEL
B4: Pleckstrin, endogenous (protein, UniProt P08567 1-350)
chain: MEPKRIREGYLVKKGSVFNTWKPMWVVLLEDGIEFYKKKSDNSPKGMIPLKGSTLTSPCQDFGKRMFVFKITTTKQQDHFFQAAFLEERDAWVRDIKKAIKCIEGGQKFARKSTRRSIRLPETIDLGALYLSMKDTEKGIKELNLEKDKKIFNHCFTGNCVIDWLVSNQSVRNRQEGLMIASSLLNEGYLQPAGDMSKSAVDGTAENPFLDNPDAFYYFPDSGFFCEENSSDDDVILKEEFRGVIIKQGCLLKQGHRRKNWKVRKFILREDPAYLHYYDPAGAEDPLGAIHLRGCVVTSVESNSNGRKSEEENLFEIITADEVHYFLQAATPKERTEWIRAIQMASRTGK
B5: Dual specificity protein phosphatase 14, endogenous (protein, UniProt O95147 1-198)
chain: MSSRGHSTLPRTLMAPRMISEGDIGGIAQITSSLFLGRGSVASNRHLLQARGITCIVNATIEIPNFNWPQFEYVKVPLADMPHAPIGLYFDTVADKIHSVSRKHGATLVHCAAGVSRSATLCIAYLMKFHNVCLLEAYNWVKARRPVIRPNVGFWRQLIDYERQLFGKSTVKMVQTPYGIVPDVYEKESRHLMPYWGI
B6: Transmembrane emp24 domain-containing protein 10, endogenous (protein, UniProt P49755 32-219)
chain: ISFHLPINSRKCLREEIHKDLLVTGAYEISDQSGGAGGLRSHLKITDSAGHILYSKEDATKGKFAFTTEDYDMFEVCFESKGTGRIPDQLVILDMKHGVEAKNYEEIAKVEKLKPLEVELRRLEDLSESIVNDFAYMKKREEEMRDTNESTNTRVLYFSIFSMFCLIGLATWQVFYLRRFFKAKKLIE

Each molecule was assayed against T1, GFP-tagged LNX1p80 (Ligand of Numb protein X1, p80 isoform) (mouse) (assay: affinity purification with mass spectrometry; GFP-LNX1p80 complexes purified on magnetic GFP-Trap beads from stably transfected HEK 293 cells; gel slices, nano-LC MS/MS; proteins also found with GFP alone removed; Mascot protein score cut-off 70).

binding, binds:
Zinc finger CCHC-type and RNA-binding motif-containing protein 1, endogenous (from UniProt Q8TBF4 1-217)
Ras GTPase-activating-like protein IQGAP1, endogenous (from UniProt P46940 1-1657)
Serine/threonine-protein phosphatase PP1-alpha catalytic subunit isoform 3, endogenous (human (endogenous in HEK 293))
Probable ubiquitin carboxyl-terminal hydrolase FAF-X, endogenous (human (endogenous in HEK 293))
SRGAP2, endogenous (from UniProt O75044 1-1071)
Kinesin-like protein KIF14, endogenous (from UniProt Q15058 1-1648)
AP-2 complex subunit mu, endogenous (from UniProt Q96CW1 1-435)
Liprin-alpha-1 (PPFIA1), endogenous (from UniProt Q13136 1-1202)
Zinc finger protein 24, endogenous (from UniProt P17028 1-368)
Chromodomain-helicase-DNA-binding protein 2, endogenous (human (endogenous in HEK 293))
Leucyl-tRNA synthetase, cytoplasmic, endogenous (from UniProt Q9P2J5 1-1176)
AP-2 complex subunit alpha-1, endogenous (from UniProt O95782-2 1-955)
TMED2, endogenous (from UniProt Q15363 21-201)
ERC1, endogenous (from UniProt Q8IUD2 1-1116)
Liprin-alpha-3, endogenous (from UniProt O75145 1-1194)
A-kinase anchor protein 13, endogenous (human (endogenous in HEK 293))
Probable E3 ubiquitin-protein ligase MYCBP2, endogenous (from UniProt O75592 1-4678)
B1
B2
B3
B4
B5
B6
